The source of these data is ChEMBL document CHEMBL1250431, “Morphinans and isoquinolines: acetylcholinesterase inhibition, pharmacophore modeling, and interaction with opioid receptors” (Bioorg Med Chem, 2010).

The chains behind the UniProt entries cited, without tags or fusion partners. Where a name states a change or a piece, a line headed by the entry shows the natural chain unless it says otherwise.
UniProt O42275: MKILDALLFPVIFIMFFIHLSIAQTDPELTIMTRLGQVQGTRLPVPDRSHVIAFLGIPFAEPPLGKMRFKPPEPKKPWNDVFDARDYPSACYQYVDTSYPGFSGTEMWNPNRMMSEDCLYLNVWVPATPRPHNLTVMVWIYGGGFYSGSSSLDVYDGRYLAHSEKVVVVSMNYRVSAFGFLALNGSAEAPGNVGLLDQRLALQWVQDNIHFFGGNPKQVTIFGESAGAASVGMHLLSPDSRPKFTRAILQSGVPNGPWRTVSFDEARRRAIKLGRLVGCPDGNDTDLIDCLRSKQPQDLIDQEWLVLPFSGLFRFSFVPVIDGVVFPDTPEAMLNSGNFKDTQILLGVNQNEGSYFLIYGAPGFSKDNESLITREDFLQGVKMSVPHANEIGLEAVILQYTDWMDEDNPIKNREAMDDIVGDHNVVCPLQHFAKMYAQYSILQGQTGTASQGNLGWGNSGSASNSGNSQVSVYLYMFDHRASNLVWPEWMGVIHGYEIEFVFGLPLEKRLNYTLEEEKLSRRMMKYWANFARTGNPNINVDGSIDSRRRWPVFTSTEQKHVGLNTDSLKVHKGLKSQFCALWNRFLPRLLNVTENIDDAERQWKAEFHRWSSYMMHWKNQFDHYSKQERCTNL

The structures appear in SMILES notation.

The assay concerns the target Acetylcholinesterase (Electrophorus electricus, UniProt O42275). Put plainly: Inhibition of electric eel AChE by Ellman's method. (In general: In Ellman's method for cholinesterases, released thiocholine reacts with DTNB.)

Turning to `CN1CC[C@]23c4c5ccc(O)c4O[C@H]2[C@@H](O)C=C[C@H]3[C@H]1C5` [MORPHINE], the Ki (commonly the dissociation constant of the complex between target and ligand, obtained from inhibition or displacement) came to 109 µM.
